Source: patent US8765679B2, “Extract and peptides derived from Oryza sativa Japonica Group and uses thereof” (Yissum Research Development Company of The Hebrew …, priority 2010, dated 2014)

Experiment: RA1-like immunoreactivity in sera and spleen (ELISA)
Set-up: species or system mice
Details: for RA1 immunoreactivity in serum: ELISA
Description: Polyclonal antibodies were raised against RA1.

With “AEMIDLAAKMLSEGRG (ORYZA SATIVA JAPONICA) [RA1, 16-mer peptide, amino acid residues 217-232 of Oryza sativa Japonica Group]” as the sequence, how does the “RA1 in spleen per wet weight” value (BALB/C mice) read?
The value was 57 ng/g.

And the “RA1 immunoreactivity in serum” value (BALB/C mice (resistant strain))?
Its value is 166 pg/mL.

What about the RA1 in spleen (C57BL/6 mice) of the same sequence?
Its RA1 in spleen is “no peptide could be detected”.

What about the “RA1 immunoreactivity in serum” value (C57BL/6 mice (sensitive strain)) of the same sequence?
The value was “undetectable amount”.
